Measured values reported in patent US12605461B2 (priority 2019, dated 2026).
Several values for one entry are separate records, joined by “and”; a condition that tells them apart may be missing. Equal values may be shown once.

Assays:
[1] = Quantification of peptide immobilization (amino acid analysis)
[2] = general procedure: Fmoc solid-phase peptide synthesis; Fmoc-Gly-Wang resin; HBTU; details: whole synthesis, scale 0.5 mmol
[3] = general procedure: Fmoc solid-phase peptide synthesis; Fmoc-Ser(tBu)-Wang resin; HBTU; details: whole synthesis, scale 0.5 mmol

Q: With “Acetyl-GRGDSPASSKK(OA)G (N-acetyl; C-terminal oxyamine-modified Gly) [RGDOA]” as the substance, how does the “concentration of immobilized RGDOA” value ([1]; after 1 h from a 250 μM solution, HA-oxime hydrogel) read?
A: 34 ± 12 µM and 65 ± 14 µM

Q: And the “concentration of immobilized RGDOA” value ([1]; after 24 h from a 250 μM solution)?
A: 65 ± 14 µM

Q: What about the “concentration of immobilized RGDOA” value ([1]; after 24 h from a 1 mM solution) of the same substance?
A: 242 ± 76 µM

Q: With “Acetyl-GRGDSPASSKK(OA)G (N-acetyl; C-terminal oxyamine-modified Gly)” as the substance, how does the isolated mass [2] read?
A: 114.9 mg

Q: What about the isolated yield [2] of the same substance?
A: 17%

Q: Which results are given for OA-SKAGAGPQGIQGQGAGKAK(OA)S?
A: isolated mass [3]: 326 mg; isolated yield [3]: 30%
